Measured values as given in patent publication US20190029928A1, “Fibrous Structures Comprising Malodor Reduction Compositions” (The Procter & Gamble Company, priority 2017, published 2019).

Experiment: Fragrance Fidelity Index (FFI) of test material on fabric swatch, expert graders
[1] = test material at 10 ppm on fabric swatch
[2] = test material at 50 ppm on fabric swatch

## CC1(C)CCc2ccc(CCC=O)cc21
[1]
  FFI: 0
[2]
  FFI: 0.5

## CC1CCC2(C(C)C)CC(C)OC2C1 (centres unmarked)
[2]
  FFI: 0.3

## CCC(=O)OC1CC2C3C=CCC3C1C2(C)C (centres unmarked)
[1]
  FFI: 0
[2]
  FFI: 0
